Source: US20090300780A1 (AbbVie / Abbott, published 2009)
These are yes or no findings as the source states them, for the method shown. Some binding calls cover weakened binding; strength is not graded here.

The chains behind the UniProt entries cited, without tags or fusion partners. Residues count along the entry.
UniProt P04629, residues 33-423: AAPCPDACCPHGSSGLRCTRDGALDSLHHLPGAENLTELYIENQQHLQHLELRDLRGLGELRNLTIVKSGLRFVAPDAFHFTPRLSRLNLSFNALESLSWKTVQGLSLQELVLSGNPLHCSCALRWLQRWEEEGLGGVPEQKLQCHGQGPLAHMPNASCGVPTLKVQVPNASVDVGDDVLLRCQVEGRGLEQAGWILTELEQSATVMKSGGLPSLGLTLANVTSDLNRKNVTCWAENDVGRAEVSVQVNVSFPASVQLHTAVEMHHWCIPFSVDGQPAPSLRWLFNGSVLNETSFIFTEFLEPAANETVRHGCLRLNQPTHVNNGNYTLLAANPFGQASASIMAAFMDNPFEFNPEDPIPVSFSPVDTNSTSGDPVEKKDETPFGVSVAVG

Molecular target: purified recombinant immunoadhesin TrkA Camel (UniProt P04629)
Test: ELISA, TrkA Camel immunoadhesin coated at 10 ug/ml, COS supernatants with IgG1, detection by anti-human Cgamma, OD450

- binding: binds
B1: MNAC13 humanized antibody (Hum MNAC13), IgG1 form (antibody, V domains shown)
VH: EVQLLESGGGLVQPGGSLRLSCAASGFTFSTYTMSWARQAPGKGLEWVAYISKGGGSTYYPDTVKGRFTISRDNSKNTLYLQMNSLRAEDSAVYYCARGAMFGNDFFFPMDRWGQGTLVTVSS
VL: DIVLTQSPSSLSASVGDRVTITCSASSSVSYMHWYQQKPGQAPKLLIYTTSNLASGVPSRFSGSGSGTDYTLTISSLQPEDVATYYCHQWSSYPWTFGGGTKVEIK
